{"source": "PubChem BioAssay AID743454 (Peter MacCallum Cancer Centre, 2014)", "aim": "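Genes whose loss kills vorinostat-resistant colon cancer cells under vorinostat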 (primary screen)", "system": "human HCT116-VR colon cancer cells, selected for vorinostat resistance", "knock-down reagent": "siRNA pool against human genes, 40 nM siRNA pool", "time to read-out": "vorinostat for 24 h, read-out about 72 h after transfection", "treatment": "vorinostat at 2.5 µM final", "detection": "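Two measures, CellTiter-Fluor viability and luminescent caspase 3/7 activity, each as fold change against same-plate mock wells, mean of duplicates, then screen-wide robust z-score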", "reading the numbers": "viability robust z-score: higher = more viable cells than screen typical; caspase robust z-score: higher = more caspase 3/7 activity than screen typical", "call rule": "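Hits are knock-downs in viability class RV1/RV2 or caspase class CA1/CA2, excluding ones that killed cells in the no-drug cell-count arm; hits then retested with single siRNAs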", "note": "Shown is an unselected part of about 18,000 reagents. Of all reagents, 450 (2.5%) got an active call. 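Single biological run; no consistent viability z cut-off exists, so the class columns, not z-scores, define the calls.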 Unmarked entries are inactive."}
{"Target gene": "SPMIP4", "viability hit class": "no change", "caspase hit class": "no change", "viability robust z-score": -3.4, "caspase robust z-score": -1.02}
{"Target gene": "INTU", "viability hit class": "no change", "caspase hit class": "no change", "viability robust z-score": 0.33, "caspase robust z-score": -0.53}
{"Target gene": "ANXA1", "viability hit class": "no change", "caspase hit class": "no change", "viability robust z-score": 0.62, "caspase robust z-score": -0.3}
{"Target gene": "COL4A4", "viability hit class": "no change", "caspase hit class": "no change", "viability robust z-score": 2.26, "caspase robust z-score": 0.12}
{"Target gene": "UPK1B", "viability hit class": "no change", "caspase hit class": "no change", "viability robust z-score": -0.08, "caspase robust z-score": 0.82}
{"Target gene": "LHFPL6", "viability hit class": "no change", "caspase hit class": "no change", "viability robust z-score": -0.54, "caspase robust z-score": 1.66}
{"Target gene": "RHBDF1", "viability hit class": "no change", "caspase hit class": "no change", "viability robust z-score": 0.22, "caspase robust z-score": 2.08}
{"Target gene": "CLN8", "viability hit class": "no change", "caspase hit class": "no change", "viability robust z-score": 1.66, "caspase robust z-score": 0.15}
{"Target gene": "HTR2A", "viability hit class": "no change", "caspase hit class": "no change", "viability robust z-score": 1.07, "caspase robust z-score": 0.93}
{"Target gene": "KRTAP9-3", "viability hit class": "no change", "caspase hit class": "no change", "viability robust z-score": 0.72, "caspase robust z-score": -0.84}
{"Target gene": "ZNF559", "viability hit class": "no change", "caspase hit class": "no change", "viability robust z-score": 1.94, "caspase robust z-score": 1.21}
{"Target gene": "C1orf146", "viability hit class": "no change", "caspase hit class": "no change", "viability robust z-score": 0.15, "caspase robust z-score": -0.68}
{"Target gene": "STARD3NL", "viability hit class": "no change", "caspase hit class": "no change", "viability robust z-score": 0.66, "caspase robust z-score": -0.26}
{"Target gene": "SSTR1", "viability hit class": "no change", "caspase hit class": "no change", "viability robust z-score": -0.92, "caspase robust z-score": 0.4}
{"Target gene": "IFT70A", "viability hit class": "no change", "caspase hit class": "no change", "viability robust z-score": -0.3, "caspase robust z-score": 0.34}
{"Target gene": "LIG3", "viability hit class": "no change", "caspase hit class": "no change", "viability robust z-score": 0.12, "caspase robust z-score": -1.08}
{"Target gene": "SLC6A15", "viability hit class": "no change", "caspase hit class": "no change", "viability robust z-score": 0.86, "caspase robust z-score": 1.31}
{"Target gene": "SIRT2", "viability hit class": "no change", "caspase hit class": "no change", "viability robust z-score": 1.99, "caspase robust z-score": -0.2}
{"Target gene": "MFGE8", "viability hit class": "no change", "caspase hit class": "no change", "viability robust z-score": -0.99, "caspase robust z-score": 0.12}
{"Target gene": "ADRA2B", "viability hit class": "no change", "caspase hit class": "no change", "viability robust z-score": 0.54, "caspase robust z-score": -0.3}
{"Target gene": "RNASEL", "viability hit class": "no change", "caspase hit class": "no change", "viability robust z-score": 0.16, "caspase robust z-score": 1.52}
{"Target gene": "FER1L5", "viability hit class": "no change", "caspase hit class": "no change", "viability robust z-score": 1.81, "caspase robust z-score": -0.7}
{"Target gene": "SOST", "viability hit class": "no change", "caspase hit class": "no change", "viability robust z-score": -0.24, "caspase robust z-score": 2.1}
{"Target gene": "CFHR1", "viability hit class": "RV2 (reduced viability) (active)", "caspase hit class": "no change", "viability robust z-score": -3.04, "caspase robust z-score": 2.02}
{"Target gene": "PTGER2", "viability hit class": "no change", "caspase hit class": "no change", "viability robust z-score": -1.67, "caspase robust z-score": 0.23}
{"Target gene": "BTRC", "viability hit class": "no change", "caspase hit class": "no change", "viability robust z-score": 0.67, "caspase robust z-score": -0.59}
{"Target gene": "SELENOS", "viability hit class": "no change", "caspase hit class": "no change", "viability robust z-score": 0.03, "caspase robust z-score": -0.64}

Reagents listed so far called active (1):
{"Target gene": "CFHR1", "viability hit class": "RV2 (reduced viability) (active)", "caspase hit class": "no change", "viability robust z-score": -3.04, "caspase robust z-score": 2.02}
